In paper PMC2854715, “Oxpholipin 11D: An Anti-Inflammatory Peptide That Binds Cholesterol and Oxidized Phospholipids” (PLoS ONE, 2010):
Non-standard residues stand in square brackets, D forms with d. Residues, ends and D or L forms follow the SMILES beside them. dDip = N[C@@H](C(=O)O)C(c1ccccc1)c1ccccc1

Key:
[1] = Circular dichroism analysis of secondary structure; format: physicochemical
[2] = FTIR analysis of secondary structure; format: physicochemical; conditions: peak area error ±4%
[3] = peptide 100 µM in 10 mM phosphate buffer pH 7.4, 25°C
[4] = peptide 100 µM in HFIP:10 mM phosphate buffer pH 7.4 (4∶6, v:v), 25°C
[5] = deuterium vapor hydrated DMPC multilayers, peptide:lipid 1∶10 mole:mole
[6] = hydrated DMPC:CHO (1.2∶1 mole:mole) multilayers, peptide:lipid 1∶10 mole:mole
[7] = peptide 1 mM in HFIP:deuterated buffer 4∶6 v:v, 25°C
[8] = peptide 1 mM in TFE:deuterated buffer 4∶6 v:v, 25°C
[9] = peptide 1 mM in deuterated 10 mM phosphate buffer pD 7.4, 25°C

Row | Compound | Conformation (%) disordered, CD [1, 3] [%] | Conformation (%) turns, CD [1, 3] [%] | Conformation (%) α-helix, CD [1, 3] [%] | Conformation (%) β-sheet, CD [1, 3] [%] | Conformation (%) disordered, CD [1, 4] [%] | Conformation (%) turns, CD [1, 4] [%] | Conformation (%) α-helix, CD [1, 4] [%] | Conformation (%) β-sheet, CD [1, 4] [%] | Conformation (%) disordered, FTIR [2, 5] [%] | Conformation (%) turns, FTIR [2, 5] [%] | Conformation (%) α-helix, FTIR [2, 5] [%] | Conformation (%) β-sheet, FTIR [2, 5] [%] | Conformation (%) disordered, FTIR [2, 6] [%] | Conformation (%) turns, FTIR [2, 6] [%] | Conformation (%) α-helix, FTIR [2, 6] [%] | Conformation (%) β-sheet, FTIR [2, 6] [%] | Conformation (%) disordered, FTIR [2, 7] [%] | Conformation (%) turns, FTIR [2, 7] [%] | Conformation (%) α-helix, FTIR [2, 7] [%] | Conformation (%) β-sheet, FTIR [2, 7] [%] | further results
1 | CC(C)C[C@@H](NC(=O)CNC(=O)[C@H](NC(=O)[C@H](NC(=O)[C@@H](CCC(=O)O)NC(=O)[C@H](N)CCCNC(=N)N)C(c1ccccc1)c1ccccc1)[C@H](C)O)C(=O)N[C@H](C)C(=O)N[C@H](Cc1c[nH]c2ccccc12)C(=O)N[C@H](CCC(=O)O)C(=O)N[C@H](Cc1c[nH]c2ccccc12)C(=O)N[C@H](Cc1c[nH]c2ccccc12)C(=O)N[C@H](CCCNC(=N)N)C(=O)N[C@@H](C(=O)N[C@@H](C(N)=O)C(C)C)[C@H](C)O [OxP-11D] (H-[dR][dE][dDip][dT]G[dL][dA][dW][dE][dW][dW][dR][dT][dV]-NH2; N-terminus assumed) | 36.0 | 19.0 | 15.0 | 30.0 | 28.0 | 33.0 | 25.0 | 14.0 | 24.2 | 24.4 | 26.5 | 24.9 | 20.2 | 27.7 | 29.5 | 22.6 | 20.0 | 37.3 | 32.4 | 10.3 | Conformation (%) disordered, FTIR [2, 8]: 13.2%; Conformation (%) turns, FTIR [2, 8]: 31.0%; Conformation (%) α-helix, FTIR [2, 8]: 32.9%; Conformation (%) β-sheet, FTIR [2, 8]: 22.9%; Conformation (%) disordered, FTIR [2, 9]: 21.4%; Conformation (%) turns, FTIR [2, 9]: 24.8%; Conformation (%) α-helix, FTIR [2, 9]: 20.1%; Conformation (%) β-sheet, FTIR [2, 9]: 33.7%
2 | Ac-DWFKAFYDKVAEKFKEAF-NH2 [D-4F, a prominent apoA-I-mimetic peptide, Ac-…-NH2, reference compound] | 10.0 | 12.0 | 65.0 | 13.0 | 6.0 | 9.0 | 74.0 | 11.0 | 23.9 | 16.4 | 57.8 | 1.9 | 22.6 | 15.2 | 58.1 | 4.1 | 8.6 | 8.0 | 71.5 | 11.9 | Conformation (%) disordered, FTIR [2, 8]: 12.7%; Conformation (%) turns, FTIR [2, 8]: 8.8%; Conformation (%) α-helix, FTIR [2, 8]: 67.2%; Conformation (%) β-sheet, FTIR [2, 8]: 11.3%; Conformation (%) disordered, FTIR [2, 9]: 13.7%; Conformation (%) turns, FTIR [2, 9]: 11.4%; Conformation (%) α-helix, FTIR [2, 9]: 63.0%; Conformation (%) β-sheet, FTIR [2, 9]: 11.8%
